Reference: article PMC5331220
These are yes or no findings as the source states them, for the method shown. Binding calls can cover weak binding; strength is not graded here.

Protein sequences, listed by entry. Tags and fused reporters are not part of them. Lines headed by an entry give the natural chain unless they say otherwise; changes in a name come on top.
UniProt Q15286: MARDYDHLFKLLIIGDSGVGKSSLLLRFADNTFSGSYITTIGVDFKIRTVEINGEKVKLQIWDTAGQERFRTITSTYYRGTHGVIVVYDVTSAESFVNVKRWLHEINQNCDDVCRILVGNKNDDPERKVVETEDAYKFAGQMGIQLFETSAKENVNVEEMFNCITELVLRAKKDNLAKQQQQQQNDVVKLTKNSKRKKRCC
UniProt Q8TDZ2: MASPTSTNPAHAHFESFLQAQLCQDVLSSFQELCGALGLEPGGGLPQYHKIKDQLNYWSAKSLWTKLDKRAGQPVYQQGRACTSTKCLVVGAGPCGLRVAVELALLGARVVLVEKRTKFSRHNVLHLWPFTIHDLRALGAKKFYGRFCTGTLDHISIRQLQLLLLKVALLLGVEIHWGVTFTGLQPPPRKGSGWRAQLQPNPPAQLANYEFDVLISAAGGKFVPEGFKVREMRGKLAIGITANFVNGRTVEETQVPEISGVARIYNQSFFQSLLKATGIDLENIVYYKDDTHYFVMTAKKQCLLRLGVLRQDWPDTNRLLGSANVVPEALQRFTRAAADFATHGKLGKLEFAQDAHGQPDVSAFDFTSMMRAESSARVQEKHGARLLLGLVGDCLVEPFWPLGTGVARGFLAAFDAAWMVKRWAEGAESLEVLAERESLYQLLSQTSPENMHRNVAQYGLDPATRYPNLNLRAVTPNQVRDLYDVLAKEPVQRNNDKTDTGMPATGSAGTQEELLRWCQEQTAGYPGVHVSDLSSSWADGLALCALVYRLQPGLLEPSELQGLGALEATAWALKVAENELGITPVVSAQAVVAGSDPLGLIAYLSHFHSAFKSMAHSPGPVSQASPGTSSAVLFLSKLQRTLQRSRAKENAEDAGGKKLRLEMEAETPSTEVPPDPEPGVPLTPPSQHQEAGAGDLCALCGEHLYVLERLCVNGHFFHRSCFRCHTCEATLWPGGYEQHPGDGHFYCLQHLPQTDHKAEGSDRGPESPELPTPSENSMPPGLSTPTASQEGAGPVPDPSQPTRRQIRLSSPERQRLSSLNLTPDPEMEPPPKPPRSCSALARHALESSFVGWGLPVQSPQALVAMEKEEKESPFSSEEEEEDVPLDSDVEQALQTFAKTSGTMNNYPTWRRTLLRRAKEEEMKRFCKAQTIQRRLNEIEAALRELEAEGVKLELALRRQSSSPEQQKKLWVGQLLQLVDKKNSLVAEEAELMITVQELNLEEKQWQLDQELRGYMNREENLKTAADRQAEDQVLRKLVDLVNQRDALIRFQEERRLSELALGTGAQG

Biological target: LexA-fused human Rab35^Q67L (GTP-locked mutant) (human) (UniProt Q15286)
Assay: two-hybrid; S. cerevisiae reporter strain L40 co-transformed with pGAD-MICAL1 and pLex-Rab35 constructs; growth on medium without histidine

| binding | Substance |
| --- | --- |
| binds | GAD-fused MICAL1^879–1067 mutant S1 (from UniProt Q8TDZ2) (domain or fragment) |
| binds | MICAL1 C-terminal tail E1001R (two-hybrid construct) (from UniProt Q8TDZ2) (domain or fragment) |
